According to article PMC10499817:
No constants are given. Whether binding was seen depends on the method and setting. In cells and extracts the contact can be indirect. Here binding means that the protein was enriched with, or labelled near, the bait; the list need not be complete.

Protein sequences, listed by entry. Tags and fused reporters are not part of them.
UniProt A0A509AS96: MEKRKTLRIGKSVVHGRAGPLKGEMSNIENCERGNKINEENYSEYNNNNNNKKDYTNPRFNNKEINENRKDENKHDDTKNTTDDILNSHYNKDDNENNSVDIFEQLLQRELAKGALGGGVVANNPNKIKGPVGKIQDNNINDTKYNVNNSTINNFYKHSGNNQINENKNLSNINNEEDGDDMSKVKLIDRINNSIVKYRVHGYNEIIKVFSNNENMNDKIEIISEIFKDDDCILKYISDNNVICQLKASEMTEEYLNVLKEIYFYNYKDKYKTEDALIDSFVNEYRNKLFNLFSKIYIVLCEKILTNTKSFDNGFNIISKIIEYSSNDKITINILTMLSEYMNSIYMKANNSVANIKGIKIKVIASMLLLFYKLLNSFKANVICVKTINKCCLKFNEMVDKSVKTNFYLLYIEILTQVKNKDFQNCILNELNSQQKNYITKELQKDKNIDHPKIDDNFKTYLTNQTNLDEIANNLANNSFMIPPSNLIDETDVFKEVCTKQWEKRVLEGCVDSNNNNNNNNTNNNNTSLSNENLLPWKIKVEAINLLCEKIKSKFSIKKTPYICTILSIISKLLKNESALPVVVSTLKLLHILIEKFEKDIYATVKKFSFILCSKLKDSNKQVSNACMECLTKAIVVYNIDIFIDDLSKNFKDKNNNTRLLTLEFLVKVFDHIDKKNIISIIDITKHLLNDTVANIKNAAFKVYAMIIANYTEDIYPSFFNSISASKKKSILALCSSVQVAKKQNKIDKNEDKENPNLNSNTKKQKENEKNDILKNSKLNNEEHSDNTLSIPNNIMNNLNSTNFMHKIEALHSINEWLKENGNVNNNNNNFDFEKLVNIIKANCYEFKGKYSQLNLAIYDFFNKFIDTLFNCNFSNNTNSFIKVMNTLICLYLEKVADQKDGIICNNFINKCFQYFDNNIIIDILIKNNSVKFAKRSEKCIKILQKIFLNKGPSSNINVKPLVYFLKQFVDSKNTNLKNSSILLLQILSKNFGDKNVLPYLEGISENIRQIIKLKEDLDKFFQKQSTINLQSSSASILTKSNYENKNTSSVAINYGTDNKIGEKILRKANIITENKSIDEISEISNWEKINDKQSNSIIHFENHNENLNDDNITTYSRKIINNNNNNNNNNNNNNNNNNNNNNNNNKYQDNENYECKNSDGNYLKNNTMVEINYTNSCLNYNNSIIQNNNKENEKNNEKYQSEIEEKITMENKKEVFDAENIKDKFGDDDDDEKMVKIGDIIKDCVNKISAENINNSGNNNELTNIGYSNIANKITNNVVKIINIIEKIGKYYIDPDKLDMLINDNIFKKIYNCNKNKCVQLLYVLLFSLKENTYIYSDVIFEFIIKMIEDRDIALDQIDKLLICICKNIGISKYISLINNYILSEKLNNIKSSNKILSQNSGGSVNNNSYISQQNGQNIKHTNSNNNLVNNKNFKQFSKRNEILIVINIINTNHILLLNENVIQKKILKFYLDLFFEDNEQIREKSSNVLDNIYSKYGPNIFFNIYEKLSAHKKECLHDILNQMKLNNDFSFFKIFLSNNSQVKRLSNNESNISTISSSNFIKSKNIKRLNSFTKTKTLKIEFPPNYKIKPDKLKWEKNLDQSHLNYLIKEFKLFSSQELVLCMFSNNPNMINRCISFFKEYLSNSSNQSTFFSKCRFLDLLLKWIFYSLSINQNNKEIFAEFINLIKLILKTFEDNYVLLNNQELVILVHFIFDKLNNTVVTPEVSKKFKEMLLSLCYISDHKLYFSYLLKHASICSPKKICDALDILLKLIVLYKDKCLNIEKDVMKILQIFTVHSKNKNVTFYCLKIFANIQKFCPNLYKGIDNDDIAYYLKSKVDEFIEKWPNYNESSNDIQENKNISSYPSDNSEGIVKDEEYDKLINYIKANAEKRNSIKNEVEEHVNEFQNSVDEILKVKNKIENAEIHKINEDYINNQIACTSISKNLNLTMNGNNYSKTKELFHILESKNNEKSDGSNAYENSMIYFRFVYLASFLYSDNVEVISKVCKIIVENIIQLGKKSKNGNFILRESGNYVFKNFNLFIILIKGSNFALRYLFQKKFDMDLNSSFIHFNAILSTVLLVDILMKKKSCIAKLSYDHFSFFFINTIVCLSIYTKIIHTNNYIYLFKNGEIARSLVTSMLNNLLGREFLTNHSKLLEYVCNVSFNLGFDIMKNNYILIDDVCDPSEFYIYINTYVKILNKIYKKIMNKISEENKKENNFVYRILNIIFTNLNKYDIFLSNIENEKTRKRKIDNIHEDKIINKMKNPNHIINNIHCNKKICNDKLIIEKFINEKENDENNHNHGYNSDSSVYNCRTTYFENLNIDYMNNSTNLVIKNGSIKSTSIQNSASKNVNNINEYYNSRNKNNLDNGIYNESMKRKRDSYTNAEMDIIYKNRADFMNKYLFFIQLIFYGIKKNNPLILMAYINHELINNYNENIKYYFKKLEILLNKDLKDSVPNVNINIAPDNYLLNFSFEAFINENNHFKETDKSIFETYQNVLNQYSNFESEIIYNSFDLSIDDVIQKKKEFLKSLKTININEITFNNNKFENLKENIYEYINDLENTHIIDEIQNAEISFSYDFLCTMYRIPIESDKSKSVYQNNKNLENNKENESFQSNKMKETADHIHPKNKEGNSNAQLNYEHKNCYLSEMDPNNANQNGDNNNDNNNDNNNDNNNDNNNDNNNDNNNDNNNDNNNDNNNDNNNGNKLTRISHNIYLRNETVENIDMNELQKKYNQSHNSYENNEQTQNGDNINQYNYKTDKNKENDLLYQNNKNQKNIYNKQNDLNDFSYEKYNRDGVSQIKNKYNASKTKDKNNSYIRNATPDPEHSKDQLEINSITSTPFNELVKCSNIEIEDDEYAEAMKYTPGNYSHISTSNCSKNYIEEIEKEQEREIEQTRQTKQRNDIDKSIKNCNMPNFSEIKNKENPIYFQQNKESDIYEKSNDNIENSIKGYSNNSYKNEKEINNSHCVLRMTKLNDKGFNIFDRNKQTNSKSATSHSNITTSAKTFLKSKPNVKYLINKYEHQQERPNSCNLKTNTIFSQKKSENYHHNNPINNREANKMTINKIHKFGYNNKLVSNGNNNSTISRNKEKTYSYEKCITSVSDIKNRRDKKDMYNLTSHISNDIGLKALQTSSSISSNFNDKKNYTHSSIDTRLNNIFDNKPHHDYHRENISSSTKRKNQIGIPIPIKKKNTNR
UniProt A0A509AJF0: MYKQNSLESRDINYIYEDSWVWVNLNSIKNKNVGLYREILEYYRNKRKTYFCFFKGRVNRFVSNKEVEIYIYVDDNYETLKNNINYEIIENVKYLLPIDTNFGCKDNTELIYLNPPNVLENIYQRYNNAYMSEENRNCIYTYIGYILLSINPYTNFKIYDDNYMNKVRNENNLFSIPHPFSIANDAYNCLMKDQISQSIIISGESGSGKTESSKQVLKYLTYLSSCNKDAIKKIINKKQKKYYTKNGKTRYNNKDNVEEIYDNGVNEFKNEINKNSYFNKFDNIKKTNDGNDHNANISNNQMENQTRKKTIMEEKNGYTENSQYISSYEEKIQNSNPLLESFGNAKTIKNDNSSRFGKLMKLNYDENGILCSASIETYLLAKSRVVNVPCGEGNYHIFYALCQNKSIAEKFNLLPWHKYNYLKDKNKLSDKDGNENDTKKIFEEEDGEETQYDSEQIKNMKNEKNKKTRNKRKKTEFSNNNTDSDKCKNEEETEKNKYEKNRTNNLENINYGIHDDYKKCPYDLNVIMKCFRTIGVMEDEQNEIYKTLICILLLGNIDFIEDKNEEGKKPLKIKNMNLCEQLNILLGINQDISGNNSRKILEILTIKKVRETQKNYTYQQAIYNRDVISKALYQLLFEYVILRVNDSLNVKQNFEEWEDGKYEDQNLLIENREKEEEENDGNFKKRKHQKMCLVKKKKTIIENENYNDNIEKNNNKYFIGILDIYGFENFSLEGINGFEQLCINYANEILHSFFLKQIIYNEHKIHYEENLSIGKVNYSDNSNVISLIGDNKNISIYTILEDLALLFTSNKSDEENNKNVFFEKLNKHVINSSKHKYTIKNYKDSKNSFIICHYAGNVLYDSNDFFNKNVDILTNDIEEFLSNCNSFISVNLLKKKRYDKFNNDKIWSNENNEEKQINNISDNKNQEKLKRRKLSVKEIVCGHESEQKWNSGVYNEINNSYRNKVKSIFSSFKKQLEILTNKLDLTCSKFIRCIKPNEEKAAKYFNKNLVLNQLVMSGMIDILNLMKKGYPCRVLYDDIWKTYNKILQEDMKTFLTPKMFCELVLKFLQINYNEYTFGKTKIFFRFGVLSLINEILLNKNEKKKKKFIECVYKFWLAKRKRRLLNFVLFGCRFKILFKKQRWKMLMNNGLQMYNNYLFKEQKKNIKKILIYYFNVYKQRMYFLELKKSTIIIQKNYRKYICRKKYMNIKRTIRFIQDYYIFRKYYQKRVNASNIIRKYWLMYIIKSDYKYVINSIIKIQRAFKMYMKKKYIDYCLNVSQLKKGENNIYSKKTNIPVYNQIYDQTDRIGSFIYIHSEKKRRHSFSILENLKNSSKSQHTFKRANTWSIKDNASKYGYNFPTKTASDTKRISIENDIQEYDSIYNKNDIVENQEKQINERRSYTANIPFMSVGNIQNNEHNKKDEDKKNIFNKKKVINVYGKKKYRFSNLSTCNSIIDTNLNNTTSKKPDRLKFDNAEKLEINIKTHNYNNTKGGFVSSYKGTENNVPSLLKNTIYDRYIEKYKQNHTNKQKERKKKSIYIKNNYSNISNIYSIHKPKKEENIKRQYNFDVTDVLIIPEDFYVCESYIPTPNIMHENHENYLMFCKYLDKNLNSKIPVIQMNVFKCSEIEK

Biological target: EB1-GFP (Plasmodium berghei EB1, C-terminal GFP tag at the endogenous locus) (P. berghei)
Experiment: affinity purification with mass spectrometry; EB1-GFP captured on GFP-Trap_A beads (2 h, 4 °C) from lysates of purified gametocytes 1 min post activation, cross-linked with 1% formaldehyde; on-bead trypsin digestion, LC-MS/MS; WT-GFP gametocytes as control; duplicates; PCA of unique peptide values

STU2 (from UniProt A0A509AS96 1-3198)
binding: binds

INCENP2, CPC subunit (from UniProt A0A509AQF6 1-2305)
binding: binds

myosin K (from UniProt A0A509AJF0 1-1629)
binding: binds
